Assay results from publication PMC11540556.
These are yes or no findings as the source states them, for the method shown. Binding seen in cells or lysates may run through a third protein. Some results given as binding are weak or reduced against the parent protein; the word gives no strength.

The chains behind the UniProt entries cited, without tags or fusion partners.
UniProt Q8IVF6: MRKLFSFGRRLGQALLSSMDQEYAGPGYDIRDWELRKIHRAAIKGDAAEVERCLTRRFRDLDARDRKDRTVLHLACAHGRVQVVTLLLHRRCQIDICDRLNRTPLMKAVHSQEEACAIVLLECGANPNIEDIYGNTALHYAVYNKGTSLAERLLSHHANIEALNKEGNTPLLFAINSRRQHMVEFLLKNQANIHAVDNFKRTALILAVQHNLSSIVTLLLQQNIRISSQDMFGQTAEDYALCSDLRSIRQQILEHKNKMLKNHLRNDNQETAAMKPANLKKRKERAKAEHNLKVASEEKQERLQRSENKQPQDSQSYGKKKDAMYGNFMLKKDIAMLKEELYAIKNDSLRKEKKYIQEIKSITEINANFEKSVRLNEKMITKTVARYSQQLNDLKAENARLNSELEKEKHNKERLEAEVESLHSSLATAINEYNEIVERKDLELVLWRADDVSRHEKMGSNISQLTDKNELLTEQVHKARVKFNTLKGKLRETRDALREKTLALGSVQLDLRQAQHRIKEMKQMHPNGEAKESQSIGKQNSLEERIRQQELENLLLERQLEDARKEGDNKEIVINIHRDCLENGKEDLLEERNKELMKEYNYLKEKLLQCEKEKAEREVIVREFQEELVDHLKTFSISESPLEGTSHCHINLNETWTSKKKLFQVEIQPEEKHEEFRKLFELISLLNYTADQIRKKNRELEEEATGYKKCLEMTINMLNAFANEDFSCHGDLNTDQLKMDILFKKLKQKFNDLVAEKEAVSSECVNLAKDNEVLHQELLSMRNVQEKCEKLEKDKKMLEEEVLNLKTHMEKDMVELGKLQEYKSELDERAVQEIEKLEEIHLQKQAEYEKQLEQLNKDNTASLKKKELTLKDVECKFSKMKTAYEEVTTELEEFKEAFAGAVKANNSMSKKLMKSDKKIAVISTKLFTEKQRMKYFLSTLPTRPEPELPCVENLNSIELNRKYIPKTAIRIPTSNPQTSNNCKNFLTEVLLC

Target: Flag-Pim-3 (provirus-integrating site for Moloney murine leukemia virus 3) (human) (UniProt Q86V86)
Assay: co-IP; HepG2/SOR cells coexpressing Flag-Pim-3 and HA-ANKRD18A, lysed in an NP40-based buffer; supernatant with anti-FLAG or anti-HA beads for 2 h; Western blot

- binding: binds
Substance: HA-ANKRD18A (Ankyrin repeat domain-containing protein 18A) (from UniProt Q8IVF6 1-992)
